Experimental data: PubChem BioAssay AID1508597 (Cure First, 2020)
Shown is a random part of the about 2,100 reagents, in one setting of the screen. 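Calls flag viability under 80% in either arm, not effects specific to rucaparib; the reference for percent is not stated.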 Entries without a mark were called inactive. A reagent listed more than once was tested more than once; the source does not tell the runs apart. Not stated in the record: the 100% reference.

- Assay: 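Survival screen with siRNA in ovarian cancer cells derived from patients, with or without rucaparib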 (primary screen)
- Cell system: human ovarian carcinoma lines grown from tumours: OCI-P5x (papillary serous) and OCI-C5x (clear cell)
- Knock-down reagent: siRNA pool against human genes, 1.25 pmol siRNA per well
- Timing: 72 h or 96 h, depending on the cell culture
- Challenge: rucaparib 20 µM (about IC30) or vehicle, present until read-out
- Rucaparib or vehicle: Rucaparib
- Cell line: OCI-C5x (clear cell)
- Read-out: 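ATP luminescence measured at 72 or 96 h according to the culture, then normalised and expressed as percent viability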
- Scale: viability, normalised: higher = more viable cells remaining
- Hit rule: 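a well counts as a hit if its normalised viability is under 80 percent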
- Meaning of the calls: active = viability under 80%; inactive = viability 80% or more

ATM, technical replicate 1 — viability, normalised (%): 56.4 (active)
ATM, technical replicate 1 — viability, normalised (%): 74.8 (active)
ATM, technical replicate 2 — viability, normalised (%): 66.4 (active)
ATM, technical replicate 2 — viability, normalised (%): 72.2 (active)
ATM, technical replicate 3 — viability, normalised (%): 78.9 (active)
ATM, technical replicate 3 — viability, normalised (%): 53.9 (active)
KLF1, technical replicate 1 — viability, normalised (%): 76.2 (active)
KLF1, technical replicate 2 — viability, normalised (%): 57.1 (active)
KLF1, technical replicate 3 — viability, normalised (%): 53.5 (active)
PRKACA, technical replicate 1 — viability, normalised (%): 68.4 (active)
PRKACA, technical replicate 2 — viability, normalised (%): 66.4 (active)
PRKACA, technical replicate 3 — viability, normalised (%): 74.8 (active)
BCOR, technical replicate 1 — viability, normalised (%): 64.2 (active)
BCOR, technical replicate 2 — viability, normalised (%): 60.9 (active)
BCOR, technical replicate 3 — viability, normalised (%): 61.7 (active)
TWF2, technical replicate 1 — viability, normalised (%): 26.8 (active)
TWF2, technical replicate 2 — viability, normalised (%): 37.5 (active)
TWF2, technical replicate 3 — viability, normalised (%): 38.6 (active)
RARA, technical replicate 1 — viability, normalised (%): 49 (active)
RARA, technical replicate 2 — viability, normalised (%): 34.3 (active)
RARA, technical replicate 3 — viability, normalised (%): 35.3 (active)
